Experiment: Extraction recoveries and matrix effects in rat plasma

| Structure (SMILES) | Extraction recovery (concentration 20 nM) [%] | Matrix effect (concentration 20 nM) [%] | Extraction recovery (concentration 100 nM) [%] | Matrix effect (concentration 100 nM) [%] | Extraction recovery (concentration 400 nM) [%] | Matrix effect (concentration 400 nM) [%] | Extraction recovery (concentration 80 nM) [%] | Matrix effect (concentration 80 nM) [%] | Extraction recovery (concentration 1600 nM) [%] | Matrix effect (concentration 1600 nM) [%] | Extraction recovery (concentration 40 nM) [%] | Matrix effect (concentration 40 nM) [%] | Extraction recovery (concentration 200 nM) [%] | Matrix effect (concentration 200 nM) [%] | Extraction recovery (concentration 800 nM) [%] | Matrix effect (concentration 800 nM) [%] |
| --- | --- | --- | --- | --- | --- | --- | --- | --- | --- | --- | --- | --- | --- | --- | --- | --- |
| O=C1CCC[C@@H]2[C@H]3CCCN4CCC[C@@H](CN12)[C@@H]34 [Compound A1, Matrine] | 99.96±8.70 | 97.15±8.32 | 102.28±11.06 | 100.69±10.94 | 86.91±1.81 | 104.25±6.38 | – | – | – | – | – | – | – | – | – | – |
| O=C1C=CC[C@@H]2[C@H]3CCC[N+]4([O-])CCC[C@@H](CN12)[C@@H]34 (stereo partly drawn) [Compound A2, Oxysophocarpine] | 100.26±10.57 | 103.61±8.62 | 108.98±6.07 | 100.35±10.48 | 88.46±2.91 | 105.13±4.79 | – | – | – | – | – | – | – | – | – | – |
| O=C1CCC[C@@H]2[C@H]3CCC[N+]4([O-])CCC[C@@H](CN12)[C@@H]34 (stereo partly drawn) [Compound A3, Oxymatrine] | – | – | – | – | 105.83±6.93 | 100.93±1.97 | 105.17±8.62 | 100.75±5.86 | 89.64±3.30 | 108.18±3.90 | – | – | – | – | – | – |
| CC(C)=CCC[C@](C)(O)[C@H]1CC[C@]2(C)[C@@H]1[C@H](O)C[C@@H]1[C@@]3(C)CC[C@H](O)C(C)(C)[C@@H]3[C@@H](O[C@@H]3O[C@H](CO)[C@@H](O)[C@H](O)[C@H]3O)C[C@]12C [Compound C1, Ginsenoside Rh1] | 98.82±10.66 | 100.13±5.48 | 87.97±1.31 | 108.26±3.21 | 90.40±3.23 | 104.51±2.44 | – | – | – | – | – | – | – | – | – | – |
| CC(C)=CCC[C@](C)(O[C@@H]1O[C@H](CO)[C@@H](O)[C@H](O)[C@H]1O)[C@H]1CC[C@]2(C)[C@@H]1[C@H](O)C[C@@H]1[C@@]3(C)CC[C@H](O)C(C)(C)[C@@H]3[C@@H](O[C@@H]3O[C@H](CO)[C@@H](O)[C@H](O)[C@H]3O)C[C@]12C [Compound C6, Ginsenoside Rg1] | – | – | – | – | – | – | – | – | – | – | 98.42±7.75 | 92.06±6.88 | 86.28±6.89 | 94.22±8.55 | 92.14±11.01 | 98.43±9.35 |
| CC(C)=CCC[C@](C)(O[C@@H]1O[C@H](CO)[C@@H](O)[C@H](O)[C@H]1O)[C@H]1CC[C@]2(C)[C@@H]1[C@H](O)C[C@@H]1[C@@]3(C)CC[C@H](O)C(C)(C)[C@@H]3[C@@H](O[C@@H]3O[C@H](CO)[C@@H](O)[C@H](O)[C@H]3O[C@@H]3O[C@@H](C)[C@H](O)[C@@H](O)[C@H]3O)C[C@]12C [Compound C9, Ginsenoside Re] | – | – | – | – | – | – | – | – | – | – | 84.68±2.98 | 97.71±3.91 | 82.85±2.10 | 110.45±2.83 | 90.05±3.61 | 103.82±5.13 |
| CC(C)=CCC[C@](C)(O[C@@H]1O[C@H](CO[C@@H]2O[C@@H](CO)[C@H](O)[C@H]2O)[C@@H](O)[C@H](O)[C@H]1O)[C@H]1CC[C@]2(C)[C@@H]1[C@H](O)C[C@@H]1[C@@]3(C)CC[C@H](O[C@@H]4O[C@H](CO)[C@@H](O)[C@H](O)[C@H]4O[C@@H]4O[C@H](CO)[C@@H](O)[C@H](O)[C@H]4O)C(C)(C)[C@@H]3CC[C@]12C [Compound D3, Ginsenoside Rc] | 88.57±7.91 | 103.80±13.18 | 102.68±2.46 | 98.95±12.51 | 87.64±6.22 | 100.09±4.57 | – | – | – | – | – | – | – | – | – | – |
| CC(C)=CCC[C@](C)(O[C@@H]1O[C@H](CO[C@@H]2O[C@H](CO)[C@@H](O)[C@H](O)[C@H]2O)[C@@H](O)[C@H](O)[C@H]1O)[C@H]1CC[C@]2(C)[C@@H]1[C@H](O)C[C@@H]1[C@@]3(C)CC[C@H](O[C@@H]4O[C@H](CO)[C@@H](O)[C@H](O)[C@H]4O[C@@H]4O[C@H](CO)[C@@H](O)[C@H](O)[C@H]4O)C(C)(C)[C@@H]3CC[C@]12C [Compound D5, Ginsenoside Rb1] | 96.18±14.17 | 97.22±8.04 | 89.29±3.21 | 99.16±11.65 | 90.85±7.16 | 105.21±11.86 | – | – | – | – | – | – | – | – | – | – |
